For this test, the system named is mice. The test is described as follows: analgesic potency in mice, tail-flick method, icv injection. In kind it is in vivo, mouse. Conditions: calculated on molar basis using the AD50 of βc-endorphin as 100%. As for the experimental part:
The opiate activities of the analogs relative to βc -endorphin were measured in vitro in the guinea pig ileum (Brit. J. Pharmacol. 39, 398 (1970)) and in vivo by icv and iv injections using the tail-flick method (D'Amour and Smith, J. Pharmacol. Exp. Ther. 72,74 (1941). The results are summarized in Tables 2 and 3.
The analgesic properties of β-endorphin and its analogs were also assessed in mice by the tail-flick method of D'Amour and Smith, supra. The peptides, dissolved in saline, were injected either icv in a volume of 5 μl, according to the method described by Haley and McCormick, Brit. J. Pharmacol. 12, 12 (1957) or iv via the tail vein. To evaluate this analgesic response, a control latency (T0) was obtained from the mean of two latencies determined prior to drug injections, and the test latencies (T1) were determined at various times after injection for each animal. "Percent analgesic" was calculated as [(T1 -T0)/[…]]×100, where the cut off time (T2) was 10 sec.

The values below come from US4317770A, “D-amino acid analogs of beta-endorphin” (Hoffmann-La Roche Inc., priority 1977, dated 1982).

For the molecule `CN1CC[C@]23c4c5ccc(O)c4O[C@H]2[C@@H](O)C=C[C@H]3[C@H]1C5.O=S(=O)(O)O` [Morphine sulfate, reference compound], the “Relative Potency (analgesic potency)” value is listed as 2.9%.
